For at least one compound, name, drawing or mass did not settle the structure.
What was measured:
[1] = tested on: ANIT-induced model of cholangitis; assay: Rat ANIT-induced model of cholangitis; type: in vivo, Sprague-Dawley rats; settings: oral, over a week, 20-30 mg/kg
HUH-7 cells [2] = assay: Cytoprotection model: DCA-induced cell death in HUH-7 cells
HUH-7 cells [3] = assay: MTT cell viability assay, HUH-7 cells treated with DCA; type: cell-based; settings: 100, 50, 10 μM; 24 h before DCA 200 μM, then co-treated 24 h (FIG. 14b)
Text: (§1) The alamarBlue™ assay uses resazurin-based reagents that function as cell health indicators by using the reducing power of living cells to quantitatively measure viability. Upon entering living cells, resazurin is reduced to resorufin, a compound that is red in color and highly fluorescent. The MTT assay is a colorimetric assay for assessing cell metabolic activity. NAD(P)H-dependent cellular oxidoreductase enzymes may, under defined conditions, reflect the number of viable cells present.

HUH-7 cells [4] = assay: alamarBlue cell viability assay, HUH-7 cells treated with DCA; type: cell-based; settings: 100, 50, 10 μM; 24 h before DCA 200 μM, then co-treated 24 h (FIG. 14a)
Text: as §1, with “The difference between the observed cell viability in each of the assays is a consequence of the different properties measured in each assay. The alamarBlue™” for “The alamarBlue™”

HFD-F mice = assay: Mouse model of hepatic steatosis (HFD-F); type: in vivo, Male C57BL/6J strain mice; settings: 30 mg/kg intraperitoneally daily
HUH-7 cells [5] = assay: Cytoprotection model: GCDCA-induced cell death in HUH-7 cells; type: cell-based; settings: 24 h pre-treatment, then co-treatment with GCDCA

| SMILES | AST serum levels ([1]; ANIT 0.1% in chow (FIG. 8a)) | ALT serum levels ([1]; ANIT 0.1% in chow (FIG. 8b)) | effect on cell viability, pre-/co-incubated with DCA (HUH-7 cells [2]; triazoles at 100 μM, 24 h before DCA, then co-treated 24 h (FIG. 6)) | cytoprotective effect / increase in cell viability (MTT) (HUH-7 cells [3]) | cytoprotective effect (alamarBlue) (HUH-7 cells [4]) | visceral fat as a percentage of body weight (HFD-F mice; last two weeks (FIG. 10a)) | overall body weight (HFD-F mice; last two weeks of 28 weeks HFD-F, data not shown) | protective effect when compound withdrawn before DCA (HUH-7 cells [2]; 24 h pre-treatment (UDCA 100 μM, TUDCA 1 mM), withdrawn, then DCA (FIG. 4c)) | cell viability 24 h after DCA, compared to DCA alone (HUH-7 cells [2]; 24 h pre-treatment, then DCA 200 μM added, TUDCA 1 mM, UDCA 100 μM (FIG. 4b)) | cell viability at 24 h post treatment, combination with DCA (HUH-7 cells [2]; combined with DCA without pre-treatment (FIG. 4a)) | cytoprotective effect over varied concentration (HUH-7 cells [2]; pre-/co-treatment with DCA (FIG. 5b)) | cytoprotective effect against GCDCA (HUH-7 cells [5]) |
| --- | --- | --- | --- | --- | --- | --- | --- | --- | --- | --- | --- | --- |
| C[C@H](CCC(=O)O)[C@H]1CC[C@H]2[C@@H]3[C@@H](n4ccnn4)C[C@@H]4C[C@H](O)CC[C@]4(C)[C@H]3CC[C@]12C [Compound 40, 3α-hydroxy-7β-(1H-1,2,3-triazol-1-yl)-5β-cholanoate] | normalised AST serum levels | normalised ALT serum levels | significant effect on cell viability | – | – | – | – | – | – | – | – | – |
| C[C@H](CCC(=O)O)[C@H]1CC[C@H]2[C@@H]3[C@@H](O)C[C@@H]4C[C@H](O)CC[C@]4(C)[C@H]3CC[C@]12C [UDCA, ursodeoxycholic acid] | – | – | – | significantly lesser degree | significantly less than that observed for sulfonamide (21) | no reduction in visceral fat was observed | reduction in overall body weight compared with vehicle | cytotoxic effect of the added DCA was increased | did not consistently exert a protective effect | did not lead to increased cell viability | modest and inconsistent cytoprotective effects | small increase in cell viability under these circumstances but this was not significant |

From patent US12522631B2, “Compounds for use in the treatment of liver disease” (The Provost, Fellows, Foundation Scholars, And The Other …, priority 2019, dated 2026)
